Where a name gives a salt, the structure may show the parent alone. ± gives the uncertainty stated by the source. This is one part of the list. Baselines shift from plate to plate; read single values as rough.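 A heat-shock-induced fluorescent stripe was set in larval rod outer segments at 6 dpf. Shedding distance ran from stripe to outer segment tip, measured by confocal stacks in about three fish per compound. Controls: 0.2% DMSO vehicle. Flagged compounds showed ≥20% change from same-week control, p < 0.001 (Dunnett test on mixed-effects models).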
How the values were obtained:
[1] = system: Danio rerio larva rod photoreceptor outer segment; assay: rod outer segment growth distance Dg, difference from same-week DMSO control mean; higher = more outer segment growth; conditions: 20 µM; treatment time: 4 days (6-10 dpf)
[2] = system: Danio rerio larva rod photoreceptor outer segment; assay: rod outer segment shedding distance Ds, difference from same-week DMSO control mean; higher = less outer segment shedding; conditions: 20 µM; treatment time: 4 days (6-10 dpf)

Row | SMILES | rod outer segment growth distance Dg [1] | rod outer segment shedding distance Ds [2]
1 | CC(C(=O)O)c1cccc(Oc2ccccc2)c1 (configuration not stated) [Fenoprofen Calcium] | -0.47 ± 0.21 um | -0.63 ± 0.15 um
2 | CNC[C@@H](O)c1ccc(O)c(O)c1 [L-Adrenaline] | -0.31 ± 0.24 um | 0.96 ± 0.41 um
3 | CC1(C)S[C@@H]2[C@H](NC(=O)[C@H](N)c3ccc(O)cc3)C(=O)N2[C@H]1C(=O)O [Amoxicillin] | -0.47 ± 0.21 um | -0.12 ± 0.15 um
4 | CCNC(=O)[C@H]1O[C@@H](n2cnc3c(N)nc(NCCc4ccc(CCC(=O)O)cc4)nc32)[C@H](O)[C@@H]1O | 0.58 ± 0.27 um | 0.43 ± 0.35 um
5 | CN[C@@H]1[C@H](O)[C@H](NC)[C@H]2O[C@@]3(O)C(=O)C[C@@H](C)O[C@H]3O[C@@H]2[C@H]1O [Spectinomycin HCl] | -0.07 ± 0.22 um | -0.03 ± 0.33 um
6 | CC(=O)Oc1ccccc1C(=O)O [Aspirin] | 0.19 ± 0.14 um | 0.17 ± 0.15 um
7 | COc1ccc(-n2nc(C(N)=O)c3c2C(=O)N(c2ccc(N4CCCCC4=O)cc2)CC3)cc1 [Apixaban] | 0.07 ± 0.2 um | -0.08 ± 0.17 um
8 | CNC[C@H](O)c1ccc(O)c(O)c1 [Epinephrine Bitartrate] | -0.32 ± 0.21 um | -0.07 ± 0.31 um
9 | N=c1ccn2c(n1)O[C@H]1[C@H](O)[C@@H](CO)O[C@H]12 [Cyclocytidine HCl] | 0.19 ± 0.42 um | 0.1 ± 0.3 um
10 | COc1c(N2CCNC(C)C2)c(F)cc2c(=O)c(C(=O)O)cn(C3CC3)c12 (configuration not stated) [Gatifloxacin] | 0.58 ± 0.31 um | 0.23 ± 0.21 um
11 | O=c1ncn2nc(Sc3ccc(F)cc3F)ccc2c1-c1c(Cl)cccc1Cl | -0.04 ± 0.16 um | -0.58 ± 0.21 um
12 | Cn1cc(-c2ccc3nnc(Sc4ccc5ncccc5c4)n3n2)cn1 | -0.57 ± 0.22 um | -0.29 ± 0.25 um
13 | CCCC(CCC)C(=O)O [Divalproex Sodium] | 0.68 ± 0.29 um | -0.23 ± 0.15 um
14 | C[S+]([O-])c1ccc(-c2nc(-c3ccc(F)cc3)c(-c3ccncc3)[nH]2)cc1 (configuration not stated) | -0.96 ± 0.16 um | 0.48 ± 0.25 um
15 | COC(=O)CCSCc1ccc(-c2onc(C)c2NC(=O)OC(C)c2ccccc2Cl)cc1 (configuration not stated) | -0.93 ± 0.17 um | -0.14 ± 0.12 um
16 | C[C@H]1COc2c(N3CCN(C)CC3)c(F)cc3c(=O)c(C(=O)O)cn1c23 [Levofloxacin] | -0.49 ± 0.19 um | -1.32 ± 0.29 um
17 | O=C(CCc1ccc(O)cc1)c1c(O)cc(O)cc1O[C@@H]1O[C@H](CO)[C@@H](O)[C@H](O)[C@H]1O [Phlorizin] | -1.86 ± 1.9 um | -4.37 ± 2 um
18 | O=C(O)c1cc(=O)[nH]c(=O)[nH]1 [Orotic acid (6-Carboxyuracil)] | -3.17 ± 1 um | -2.99 ± 1.3 um
19 | NCC(=O)CCC(=O)O [5-Aminolevulinic acid HCl] | -0.84 ± 0.23 um | -0.27 ± 0.16 um
20 | Cc1cc(=O)oc2cc(O)ccc12 [4-Methylumbelliferone (4-MU)] | -0.32 ± 0.21 um | 0.93 ± 0.32 um
21 | C#Cc1cccc(Nc2ncnc3cc4c(cc23)OCCOCCOCCO4)c1 [Icotinib] | -0.03 ± 0.28 um | -0.26 ± 0.22 um
22 | CCCCC(=O)N(Cc1ccc(-c2ccccc2-c2nnn[nH]2)cc1)[C@H](C(=O)O)C(C)C [Valsartan] | 1.03 ± 0.2 um | -0.17 ± 0.28 um
23 | O=S(=O)(O)CCSSCCS(=O)(=O)O [Dimesna] | 0.55 ± 0.19 um | -1.18 ± 0.27 um
24 | CCN(c1cc(-c2ccc(CN3CCOCC3)cc2)cc(C(=O)NCc2c(C)cc(C)[nH]c2=O)c1C)C1CCOCC1 | -0.34 ± 0.21 um | 0.41 ± 0.29 um

Quoted from the listing:
rod outer segment shedding distance Ds [2], CC(C(=O)O)c1cccc(Oc2ccccc2)c1 (configuration not stated) [Fenoprofen Calcium] is entered as -0.63 ± 0.15 um
rod outer segment shedding distance Ds [2], C[S+]([O-])c1ccc(-c2nc(-c3ccc(F)cc3)c(-c3ccncc3)[nH]2)cc1 (configuration not stated) is entered as 0.48 ± 0.25 um
rod outer segment shedding distance Ds [2], O=S(=O)(O)CCSSCCS(=O)(=O)O [Dimesna] is entered as -1.18 ± 0.27 um

The results go on.

Row | SMILES | rod outer segment growth distance Dg [1] | rod outer segment shedding distance Ds [2]
25 | Nc1ccc2ncnc(NCCc3ccc(Oc4ccccc4)cc3)c2c1 | -0.4 ± 0.17 um | -0.61 ± 0.14 um
26 | c1ccc(NCc2ccc(CNc3ccccn3)cc2)nc1 | -1.44 ± 0.2 um | -0.46 ± 0.14 um
27 | CNC(=O)c1cc(COc2nnc(Nc3ccc(Cl)cc3)c3ccoc23)ccn1 [Telatinib] | -0.73 ± 0.28 um | -0.87 ± 0.24 um
28 | NS(=O)(=O)c1cc2c(cc1Cl)NCNS2(=O)=O [Hydrochlorothiazide] | 0.02 ± 0.27 um | -0.34 ± 0.14 um
29 | CC(=O)OCC(=O)NCCCOc1cccc(CN2CCCCC2)c1 [Roxatidine Acetate HCl] | 0.46 ± 0.19 um | 0.25 ± 0.28 um
30 | CCc1cccc(CC)c1NC(=O)N1Cc2[nH]nc(NC(=O)c3ccc(N4CCN(C)CC4)cc3)c2C1 | -0.27 ± 0.17 um | -0.74 ± 0.17 um
31 | Oc1ccc(/C=C/c2cc(O)cc(O)c2)cc1 [Resveratrol] | -0.98 ± 0.22 um | -0.29 ± 0.31 um
32 | CC(C)NC[C@@H](C(=O)N1CCN(c2ncnc3c2[C@H](C)C[C@H]3O)CC1)c1ccc(Cl)cc1 | -0.31 ± 0.17 um | -0.44 ± 0.13 um
33 | Nc1ccccc1NC(=O)c1ccc(CNC(=O)OCc2cccnc2)cc1 [Entinostat (MS-275)] | -0.57 ± 0.13 um | -0.74 ± 0.23 um
34 | CCOC(=O)[C@H](CCc1ccccc1)N[C@H]1CCc2ccccc2N(CC(=O)O)C1=O [Benazepril HCl] | -0.35 ± 0.17 um | -0.56 ± 0.19 um
35 | Cc1cccc(-c2[nH]c(C(C)(C)C)nc2-c2ccc3nccnc3c2)n1 | -1.31 ± 0.25 um | 1.31 ± 0.25 um
36 | COc1ccccc1OCC(O)CO (configuration not stated) [Guaifenesin] | -0.39 ± 0.22 um | -0.29 ± 0.17 um
37 | CCOc1ccc(NC(C)=O)cc1 [Phenacetin] | 0.97 ± 0.29 um | -0.63 ± 0.16 um
38 | COc1ccccc1OCC(O)COC(N)=O (configuration not stated) [Methocarbamol] | -0.18 ± 0.22 um | 0 ± 0.18 um
39 | Cc1cccc(C)c1OCC(=O)N[C@@H](Cc1ccccc1)[C@@H](O)C[C@H](Cc1ccccc1)NC(=O)[C@H](C(C)C)N1CCCNC1=O [Lopinavir] | -0.49 ± 0.21 um | -0.8 ± 0.25 um
40 | NC(=O)C1CCCc2c1[nH]c1ccc(Cl)cc21 (configuration not stated) [EX 527 (Selisistat)] | -1.29 ± 0.13 um | -0.64 ± 0.15 um
41 | CCn1cc(C(=O)O)c(=O)c2ccc(C)nc21 [Nalidixic acid] | -2.72 ± 1.1 um | -3.28 ± 1.2 um
42 | C=CCc1cc(OC)c(O)c(C(=O)NCCO)c1 [Alibendol] | -0.25 ± 0.22 um | -0.66 ± 0.26 um
43 | CC(C)(Sc1cc(C(C)(C)C)c(O)c(C(C)(C)C)c1)Sc1cc(C(C)(C)C)c(O)c(C(C)(C)C)c1 [Probucol] | 0.84 ± 0.24 um | -0.5 ± 0.23 um
44 | Cn1cc(C2=C(c3ccc(Cl)cc3Cl)C(=O)NC2=O)c2ccccc21 | 0.14 ± 0.15 um | 0.58 ± 0.23 um
45 | CC#CCn1c(N2CCC[C@@H](N)C2)nc2c1c(=O)n(Cc1nc(C)c3ccccc3n1)c(=O)n2C [Linagliptin] | 0.29 ± 0.15 um | 0.34 ± 0.15 um
46 | CCOC(=O)O[C@]1(C(=O)OCCl)CC[C@H]2[C@@H]3CCC4=CC(=O)C=C[C@]4(C)[C@H]3[C@@H](O)C[C@@]21C [Loteprednol etabonate] | -0.47 ± 0.22 um | 0.14 ± 0.19 um
47 | Cc1ccccc1C(=O)Nc1ccc(C(=O)N2CCCC(O)c3cc(Cl)ccc32)c(C)c1 (configuration not stated) [Tolvaptan] | -0.59 ± 0.22 um | 0.06 ± 0.15 um
48 | CC[C@]12C=CCN3CC[C@@]4(c5cc([C@@]6(C(=O)OC)C[C@@H]7C[C@@H](C(C)(F)F)CN(Cc8c6[nH]c6ccccc86)C7)c(OC)cc5N(C)[C@H]4[C@@](O)(C(=O)OC)[C@@H]1OC(C)=O)[C@@H]32 [Vinflunine Tartrate] | 0.26 ± 0.2 um | 0.14 ± 0.3 um

Among those listed so far, these contain a tert-butyl group.
Row | SMILES | rod outer segment growth distance Dg [1] | rod outer segment shedding distance Ds [2]
35 | Cc1cccc(-c2[nH]c(C(C)(C)C)nc2-c2ccc3nccnc3c2)n1 | -1.31 ± 0.25 um | 1.31 ± 0.25 um
43 | CC(C)(Sc1cc(C(C)(C)C)c(O)c(C(C)(C)C)c1)Sc1cc(C(C)(C)C)c(O)c(C(C)(C)C)c1 [Probucol] | 0.84 ± 0.24 um | -0.5 ± 0.23 um

Later entries:

Row | SMILES | rod outer segment growth distance Dg [1] | rod outer segment shedding distance Ds [2]
49 | COc1ccc(/C=C/C(=O)Nc2ccccc2C(=O)O)cc1OC [Tranilast] | -0.03 ± 0.26 um | -0.17 ± 0.23 um
50 | COc1cccc2c1C(=O)c1c(O)c3c(c(O)c1C2=O)C[C@@](O)(C(C)=O)C[C@@H]3O[C@H]1C[C@H](N)[C@H](O)[C@H](C)O1 [Daunorubicin HCl] | 0.69 ± 0.2 um | -0.28 ± 0.18 um
51 | CCCc1nc(C)c2c(=O)nc(-c3cc(S(=O)(=O)N4CCN(CC)CC4)ccc3OCC)[nH]n12 [Vardenafil HCl Trihydrate] | 0.12 ± 0.22 um | 0.88 ± 0.3 um
52 | CC(C)(C)c1cc(C(C)(C)C)c(NC(=O)c2c[nH]c3ccccc3c2=O)cc1O [Ivacaftor (VX-770)] | -2.18 ± 0.34 um | -0.17 ± 0.21 um
53 | COc1cc(CCc2cc(NC(=O)c3ccc(N4CC(C)NC(C)C4)cc3)n[nH]2)cc(OC)c1 (configuration not stated) | -1.2 ± 0.2 um | -0.56 ± 0.14 um
54 | CC(C)[C@H]1CC[C@H](C(=O)N[C@H](Cc2ccccc2)C(=O)O)CC1 [Nateglinide] | 0.69 ± 0.31 um | 0.12 ± 0.42 um
55 | CC(C)c1nc(CN(C)C(=O)N[C@H](C(=O)N[C@@H](Cc2ccccc2)C[C@H](O)[C@H](Cc2ccccc2)NC(=O)OCc2cncs2)C(C)C)cs1 [Ritonavir] | 0.49 ± 0.17 um | -2.07 ± 0.25 um
56 | COc1ccc(-c2ccc3c(N4CCOCC4)nc(N4C[C@@H](C)O[C@@H](C)C4)nc3n2)cc1CO | 0.12 ± 0.23 um | 0.08 ± 0.21 um
57 | CS(=O)(=O)OCCCCOS(C)(=O)=O [Busulfan] | 0.25 ± 0.17 um | 0.54 ± 0.18 um
58 | Oc1cccc(-c2nc(N3CCOCC3)c3oc4ncccc4c3n2)c1 | -1.4 ± 0.19 um | -0.83 ± 0.23 um
59 | CCn1cc(C(=O)O)c(=O)c2cc(F)c(N3CCNC(C)C3)c(F)c21 (configuration not stated) [Lomefloxacin HCl] | 0.41 ± 0.23 um | -0.34 ± 0.21 um
60 | O=C(CCCCCCC(=O)Nc1ccccc1)NO [Vorinostat (SAHA, MK0683)] | -0.95 ± 0.083 um | -0.36 ± 0.19 um
61 | O=C(O)C1(C(=O)O)CCC1.[NH2-].[NH2-].[Pt+2] [Carboplatin] | 1.12 ± 0.21 um | 0.05 ± 0.27 um
62 | Cc1cnc(-c2cc(N3CCN(C(=O)CCS(C)(=O)=O)CC3)ncc2Cl)c(C)c1 | 0.4 ± 0.16 um | -0.12 ± 0.14 um
63 | O=C(N[C@H](CO)[C@H](O)c1ccc([N+](=O)[O-])cc1)C(Cl)Cl [Chloramphenicol] | 0.5 ± 0.21 um | 0.62 ± 0.2 um
64 | C[C@@H](N)[C@H]1CC[C@H](C(=O)Nc2ccncc2)CC1 | -0.26 ± 0.1 um | -1.19 ± 0.22 um
65 | COC(=O)[C@H](Cc1ccccc1)NC(=O)[C@@H](N)CC(=O)O [Aspartame] | 1.25 ± 0.31 um | -0.19 ± 0.3 um
66 | COC(=O)C1=C(C)NC(C)=C(C(=O)OC)C1c1ccccc1[N+](=O)[O-] [Nifedipine] | 0.97 ± 0.25 um | -0.29 ± 0.16 um
67 | Cc1ccc(NC(=O)C2(c3ccc4c(c3)OC(F)(F)O4)CC2)nc1-c1cccc(C(=O)O)c1 [VX-809 (Lumacaftor)] | -0.62 ± 0.21 um | -0.7 ± 0.2 um
68 | COc1cccc2cc(-c3nc([C@H]4CC[C@H](C(=O)O)CC4)n4ncnc(N)c34)[nH]c12 | -1.16 ± 0.2 um | -0.47 ± 0.11 um
69 | COc1ccc([C@H]2CNC(=O)C2)cc1OC1CCCC1 [S- (+)-Rolipram] | 0.3 ± 0.19 um | -1.43 ± 0.23 um
70 | CCn1c(-c2nonc2N)nc2c(C#CC(C)(C)O)ncc(OC[C@H]3CCCNC3)c21 | -1.34 ± 0.2 um | 0.52 ± 0.22 um
71 | CNS(=O)(=O)CCc1ccc2[nH]cc(C3CCN(C)CC3)c2c1 [Naratriptan] | -0.5 ± 0.16 um | -0.49 ± 0.18 um

Source: the supplement of paper PMC6143611
